# Results as given in publication PMC10550928.
# Assays:
# MeeY-FLAG (B. subtilis) [1] = biological target: T1, MeeY-FLAG (B. subtilis) (UniProt O34997); test: affinity purification with mass spectrometry; anti-FLAG M2 magnetic beads on lysates (1% Triton X-100) of B. subtilis grown overnight in LB with 50 uM Mn; 30 °C for 3 h; washed with 1X PBS; eluted by glycine (pH 3.0) for 30 min; LC-MS/MS; membrane proteins found in the sample but not in the untagged WT controls
# T1 sequence: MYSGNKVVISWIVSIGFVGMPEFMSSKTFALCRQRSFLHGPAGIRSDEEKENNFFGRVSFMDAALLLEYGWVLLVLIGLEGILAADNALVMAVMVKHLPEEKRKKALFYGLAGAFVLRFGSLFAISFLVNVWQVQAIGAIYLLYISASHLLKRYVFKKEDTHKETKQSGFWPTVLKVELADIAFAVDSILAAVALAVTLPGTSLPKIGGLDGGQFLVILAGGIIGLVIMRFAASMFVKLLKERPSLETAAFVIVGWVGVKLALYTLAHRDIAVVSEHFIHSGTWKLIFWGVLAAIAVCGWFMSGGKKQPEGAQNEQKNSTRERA
# MeeF-FLAG (B. subtilis) = biological target: T2, MeeF-FLAG (B. subtilis) (UniProt O34447); test: affinity purification with mass spectrometry; anti-FLAG M2 magnetic beads on lysates (1% Triton X-100) of B. subtilis grown overnight in LB with 50 uM Mn; 30 °C for 3 h; washed with 1X PBS; eluted by heating at 95 °C in 2X Laemmli sample buffer; LC-MS/MS; membrane proteins found in the sample but not in the untagged WT controls
# T2 sequence: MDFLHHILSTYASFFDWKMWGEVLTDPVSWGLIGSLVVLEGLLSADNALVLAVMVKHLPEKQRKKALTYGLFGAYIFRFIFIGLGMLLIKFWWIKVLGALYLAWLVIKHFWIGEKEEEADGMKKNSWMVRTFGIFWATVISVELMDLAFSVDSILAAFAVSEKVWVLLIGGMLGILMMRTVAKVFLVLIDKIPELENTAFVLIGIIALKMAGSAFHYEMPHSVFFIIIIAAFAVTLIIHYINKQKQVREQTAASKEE
# MeeY-FLAG (B. subtilis) [2] = biological target: T1, MeeY-FLAG (B. subtilis); test: as above
substance,measurement,setting,value
AtpA (from UniProt P37808 1-502),binding,MeeY-FLAG (B. subtilis) [1],binds
same,binding,MeeF-FLAG (B. subtilis),binds
same,binding,MeeY-FLAG (B. subtilis) [2],binds
AtpD (from UniProt P37809 1-473),binding,MeeY-FLAG (B. subtilis) [1],binds
AtpG (from UniProt P37810 1-287),binding,MeeF-FLAG (B. subtilis),binds
same,binding,MeeY-FLAG (B. subtilis) [2],binds
FrlO (B. subtilis (endogenous in B. subtilis)),binding,MeeF-FLAG (B. subtilis),binds
FtsH (from UniProt P37476 1-637),binding,MeeF-FLAG (B. subtilis),binds
same,binding,MeeY-FLAG (B. subtilis) [2],binds
MalA (from UniProt P54716 1-449),binding,MeeF-FLAG (B. subtilis),binds
SsdC (B. subtilis (endogenous in B. subtilis)),binding,MeeF-FLAG (B. subtilis),binds

# These are yes or no findings as the source states them, for the method shown. In cells and extracts the contact can be indirect. A yes stands for co-enrichment or nearness to the bait. Other partners may have been found. Where a sequence is shown, tags or fusion partners need not be part of it.
